This passage reports binding results from publication doi:10.64898/2025.12.08.692925.

No constants are given. Whether binding was seen depends on the method and setting. Binding seen in cells or lysates may run through a third protein. A result given as binding can be weak or reduced; the word gives no strength. Where a sequence is shown, tags or fusion partners need not be part of it.

Assay [1] has as its target T1, Tim23 fused to short YFP (S. cerevisiae) (UniProt P32897).
T1 sequence: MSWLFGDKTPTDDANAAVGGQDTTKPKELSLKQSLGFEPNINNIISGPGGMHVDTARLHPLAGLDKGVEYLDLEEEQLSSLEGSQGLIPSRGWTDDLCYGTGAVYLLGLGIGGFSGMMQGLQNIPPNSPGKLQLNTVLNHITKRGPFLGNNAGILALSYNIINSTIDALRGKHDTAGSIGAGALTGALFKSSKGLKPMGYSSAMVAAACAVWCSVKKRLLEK
Put plainly: split reporter.

Assay [2] has as its target Tim23 mutant M3 fused to short YFP (S. cerevisiae) (UniProt P32897). Put plainly: split reporter.

“Sfc1 mutant M2 fused to long YFP (from UniProt P33303)”: the binding entry in assay [1] is “binds”.

For the molecule “Sfc1 mutant M4 fused to long YFP (from UniProt P33303)”, the binding result in assay [1] was “binds”.

Consider “Sfc1 mutant M5 fused to long YFP (from UniProt P33303)”, for which the binding result in assay [1] was “binds”.

B1: Sfc1 fused to long YFP (protein, UniProt P33303 1-322)
chain: MSQKKKASHPAINLMAGGTAGLFEALCCHPLDTIKVRMQIYRRVAGIEHVKPPGFIKTGRTIYQKEGFLALYKGLGAVVIGIIPKMAIRFSSYEFYRTLLVNKESGIVSTGNTFVAGVGAGITEAVLVVNPMEVVKIRLQAQHLTPSEPNAGPKYNNAIHAAYTIVKEEGVSALYRGVSLTAARQATNQGANFTVYSKLKEFLQNYHQMDVLPSWETSCIGLISGAIGPFSNAPLDTIKTRLQKDKSISLEKQSGMKKIITIGAQLLKEEGFRALYKGITPRVMRVAPGQAVTFTVYEYVREHLENLGIFKKNDTPKPKPLK
Regarding B1, the binding entry in assay [2] is on record as “binds”.
